The assay has as its target Flag-tagged USP10 deletion mutant lacking the N-terminal regulatory domain (1-206) (UniProt Q14694). Nature of the assay: co-IP; His-RUNX1 and Flag-USP10 (full length, C424A or deletion mutants) in HEK293T cells; NETN buffer, protein A/G agarose beads, 4 °C, four washes.

By UniProt entry, the sequences of proteins in these tests, tags left out. Where a name states a change or a piece, a line headed by the entry shows the natural chain unless it says otherwise. Chains listed by the source or under a name are the forms on record and can include a tag or linker.
UniProt Q14694: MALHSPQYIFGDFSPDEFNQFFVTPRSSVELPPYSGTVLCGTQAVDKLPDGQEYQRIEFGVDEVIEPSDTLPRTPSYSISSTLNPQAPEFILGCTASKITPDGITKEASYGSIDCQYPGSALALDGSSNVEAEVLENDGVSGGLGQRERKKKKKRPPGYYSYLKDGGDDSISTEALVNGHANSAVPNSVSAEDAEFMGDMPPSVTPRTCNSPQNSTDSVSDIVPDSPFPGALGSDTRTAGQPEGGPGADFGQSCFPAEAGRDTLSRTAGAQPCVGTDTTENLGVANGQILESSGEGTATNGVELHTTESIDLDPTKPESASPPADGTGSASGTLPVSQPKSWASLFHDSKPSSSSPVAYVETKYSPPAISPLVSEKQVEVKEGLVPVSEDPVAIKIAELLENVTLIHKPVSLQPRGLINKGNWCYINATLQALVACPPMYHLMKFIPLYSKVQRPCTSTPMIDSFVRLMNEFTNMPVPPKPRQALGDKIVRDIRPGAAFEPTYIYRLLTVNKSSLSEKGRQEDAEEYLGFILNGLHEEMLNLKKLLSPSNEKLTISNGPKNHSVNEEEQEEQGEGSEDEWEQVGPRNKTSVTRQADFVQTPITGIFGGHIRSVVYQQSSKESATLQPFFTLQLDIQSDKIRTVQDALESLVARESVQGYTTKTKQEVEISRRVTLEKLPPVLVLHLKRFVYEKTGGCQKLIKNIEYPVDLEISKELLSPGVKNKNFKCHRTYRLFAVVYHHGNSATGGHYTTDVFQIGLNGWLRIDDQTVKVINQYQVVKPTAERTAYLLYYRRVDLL
His-tagged full-length (FL) RUNX1 (Q01196-8, form named): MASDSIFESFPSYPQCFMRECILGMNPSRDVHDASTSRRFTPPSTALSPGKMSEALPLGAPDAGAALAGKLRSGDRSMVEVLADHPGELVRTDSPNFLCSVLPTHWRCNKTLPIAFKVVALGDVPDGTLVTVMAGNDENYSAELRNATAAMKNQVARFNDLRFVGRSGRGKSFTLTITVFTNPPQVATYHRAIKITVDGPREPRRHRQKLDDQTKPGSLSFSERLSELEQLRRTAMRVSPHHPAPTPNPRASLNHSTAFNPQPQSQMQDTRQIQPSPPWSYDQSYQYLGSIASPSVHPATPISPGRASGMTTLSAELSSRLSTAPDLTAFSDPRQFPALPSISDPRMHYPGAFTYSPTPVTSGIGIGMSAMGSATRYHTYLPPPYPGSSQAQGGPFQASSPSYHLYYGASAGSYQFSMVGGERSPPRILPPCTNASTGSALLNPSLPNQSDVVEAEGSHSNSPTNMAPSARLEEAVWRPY

Results are given in words; binding and its absence hold for the method and conditions named. Binding seen in cells or lysates may run through a third protein.

For “His-tagged full-length (FL) RUNX1 (from UniProt Q01196-8 1-480)”, the binding entry is on record as “no binding”.

The values are drawn from article PMC10033651.
